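Plate-reader measure of the Venus reporter marking one vaccinia stage in infected cells (the cell line is not named here); read time unknown.
The test concentration is not given here.
Percent change in Venus reporter signal; lower (more negative) values mean stronger inhibition of that viral stage.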

Values are in %.
How 0% and 100% were set is not given here.
Common to all entries: measured here: Venus reporter, other viral stage.
This is a side read-out of the assay, for part of the compounds, not drawn at random.

For C[C@@H]1CCCCO[C@@H](CN(C)S(=O)(=O)c2cccs2)[C@H](C)CN([C@@H](C)CO)C(=O)c2cc(NS(=O)(=O)c3cccs3)ccc2O1 the result was activity change (Venus) -41.8%.
For N#C[C@H]1[C@H](c2ccc(-c3cccc(F)c3)cc2)[C@H](CO)N1C(=O)NC1CCCC1 the result was activity change (Venus) -50.28%.
For COc1ccc(S(=O)(=O)N(C)C[C@H]2OCCCC[C@H](C)Oc3ccc(NS(=O)(=O)c4ccccc4)cc3C(=O)N([C@@H](C)CO)C[C@@H]2C)cc1 the result was activity change (Venus) -30.85%.
For Cc1ccccc1S(=O)(=O)N1CC[C@@H]2[C@@H](CO)Nc3ccc(-c4ccc(C#N)cc4)cc3[C@@H]21 the result was activity change (Venus) -39.1%.
For C[C@H](CO)N1C[C@H](C)[C@@H](CN(C)C(=O)Nc2ccccc2)Oc2ncc(C#CC3CCCCC3)cc2C1=O the result was activity change (Venus) -33.76%.
For COc1ccc(C#Cc2cnc3c(c2)C(=O)N([C@@H](C)CO)C[C@@H](C)[C@H](CN(C)CC2CCCC2)O3)cc1 the result was activity change (Venus) -90.03%.
For Cc1ccc(S(=O)(=O)Nc2ccc3c(c2)C(=O)N([C@H](C)CO)C[C@@H](C)[C@@H](CN(C)C(=O)Cc2ccccc2)OCCCC[C@H](C)O3)cc1 the result was activity change (Venus) -31.01%.
For C[C@@H]1CN([C@H](C)CO)C(=O)c2cc(C#Cc3ccccc3F)cnc2O[C@@H]1CN(C)S(=O)(=O)c1ccccc1F the result was activity change (Venus) -27.94%.
For C[C@H](CO)N1C[C@H](C)[C@H](CN(C)S(=O)(=O)c2cccs2)OCCCC[C@H](C)Oc2ccc(NS(=O)(=O)c3cccs3)cc2C1=O the result was activity change (Venus) -31.72%.
For CCCC#Cc1ccc([C@H]2[C@@H](CO)N3CCCCN(S(C)(=O)=O)C[C@H]23)cc1 the result was activity change (Venus) -38.53%.
For CCCNC(=O)N(C)C[C@H]1Oc2cc(C3=CCCCC3)ccc2S(=O)(=O)N([C@@H](C)CO)C[C@@H]1C the result was activity change (Venus) -30.15%.
For Cc1ccc(S(=O)(=O)Nc2ccc3c(c2)CC(=O)N([C@@H](C)CO)C[C@@H](C)[C@H](CN(C)Cc2ccc(-c4ccccc4)cc2)O3)cc1 the result was activity change (Venus) -43.66%.
For O=C(C[C@H]1C=C[C@@H](NC(=O)CCN2CCCCC2)[C@H](CO)O1)Nc1ccc(-c2ccccc2)cc1 the result was activity change (Venus) -33.16%.
For C[C@H]1CN([C@@H](C)CO)S(=O)(=O)c2ccc(C#CC3CC3)cc2O[C@H]1CN(C)C(=O)c1cccc(F)c1 the result was activity change (Venus) -26.99%.
For C[C@@H]1CCCCO[C@@H](CN(C)C(=O)C2CCCCC2)[C@H](C)CN([C@@H](C)CO)C(=O)c2cc(NS(=O)(=O)c3cccs3)ccc2O1 the result was activity change (Venus) -25.36%.
For C[C@@H]1CCCCO[C@@H](CN(C)C(=O)Cc2ccccc2)[C@H](C)CN([C@H](C)CO)C(=O)c2cc(NS(=O)(=O)c3ccc(Cl)cc3)ccc2O1 the result was activity change (Venus) -38.76%.
For C[C@H](CO)N1C[C@H](C)[C@H](CN(C)Cc2cccc(C(F)(F)F)c2)Oc2ncc(-c3cc4ccccc4o3)cc2C1=O the result was activity change (Venus) -42.98%.
For C[C@H]1CN([C@@H](C)CO)C(=O)c2cc(C#CC3CCCCC3)cnc2O[C@H]1CN(C)S(=O)(=O)c1cccc(F)c1 the result was activity change (Venus) -45.71%.

Repeated from the top, 2 entries:

{"structure": "C[C@@H]1CCCCO[C@@H](CN(C)S(=O)(=O)c2cccs2)[C@H](C)CN([C@@H](C)CO)C(=O)c2cc(NS(=O)(=O)c3cccs3)ccc2O1", "activity change (Venus) (%)": "-41.8"}
{"structure": "N#C[C@H]1[C@H](c2ccc(-c3cccc(F)c3)cc2)[C@H](CO)N1C(=O)NC1CCCC1", "activity change (Venus) (%)": "-50.28"}

The results are deposited in PubChem (AID1053133; Broad Institute, 2014).